The test system of series [1] is human hepatoma derived HepG2 cells. As to the kind of experiment: HepG2 cytotoxicity assay (resazurin). Type of series: cell-based. Conditions: cytotoxicity/D6 IC50. As for the experimental part:
In this assay, HepG2 cells were incubated with test compounds for 24 hours, followed by a 24-hour recovery period and subsequent staining to evaluate for cytotoxic effects with resazurin. The ratio of the resulting HepG2 IC50 value to the P. falciparum D6 IC50 value can be considered an ‘in vitro therapeutic index,’ or IVTI.
Compounds were prepared as 10 mM stock solutions in DMSO. […] HepG2 cells were added to each well of flat bottom 96-well tissue culture plates at an initial density of 2×10^4 cells per well, and an initial volume of 160 μL complete medium per well. After an overnight incubation at 37° C. to adhere the cells to the culture plates, 40 μL drug solutions in complete medium were applied to each well at a final concentration range of 0 to 200 μM across each plate. Drugs were tested in triplicate or quadruplicate. The cells were incubated for 24 hours at 37° C. and 5% CO2 with the drug solutions, which were then aspirated and replaced with 200 μL per well of complete medium for an additional 24 hour incubation under the same conditions. To each well was added 20 μL of resazurin (Alamar Blue) in PBS buffer to a final concentration of 10 μM, and the plates were incubated for 3 hours. Fluorescence was measured at 560 nm excitation and 590 nm emission bands using a Spectramax iD3 plate reader. Fluorescence readings were normalized with respect to the untreated control wells and plotted against the logarithm of drug concentration.

The subject of another series is P. falciparum strains. It is filed as cell-based, Plasmodium falciparum. Conditions: MDR strains Dd2 and C2B relative to drug sensitive D6. The procedure: The in vitro activity of each compound in the aminoguanidine library was assessed against asynchronous cultures of Plasmodium falciparum parasites replicating within human erythrocytes (Tables 1-3). As the chemical development of robenidine was not discussed in its original publication in 1970^4 and limited structural information is available regarding its mechanism of action,^10 profiling was guided primarily by in vitro potency against the P. falciparum D6 strain cultured in human erythrocytes as described above.
All aminoguanidines synthesized were also evaluated against three multi-drug resistant P. falciparum strains (Dd2, Tm90-C2B, and A6) and for mammalian cell cytotoxicity.
In addition to the drug-sensitive P. falciparum D6 strain, the aminoguanidines were assessed against three drug-resistant strains (Tables 1-3).
The aminoguanidine series was assessed for in vitro antiplasmodial activity using the fluorescence-based SYBR Green assay described previously by Smilkstein and co-workers.^38 Compounds were evaluated in quadruplicate in flat-bottomed Costar clear 96-well plates (Model #3585). […] Fluorescence was read at 497 nm excitation and 520 nm emission bands using a Spectramax iD3 plate reader. Fluorescence readings were normalized with respect to the untreated control wells representing normal parasite growth and plotted against the logarithm of drug concentration.

Structures are written as SMILES.

Consider `N=C(N/N=C/c1ccccc1F)N/N=C/c1ccccc1F` [Compound 2], for which, in series [1], the “IVTI (In Vitro Therapeutic Index)” value is recorded as >100.
Take `N=C(N/N=C/c1cccc(F)c1)N/N=C/c1cccc(F)c1` [Compound 3]: the “IVTI (In Vitro Therapeutic Index)” value in series [1] worked out at 64. For the same compound, the “degree of cross resistance” value with P. falciparum strains is 6.5 fold.
Turning to `N=C(N/N=C/c1ccc(F)cc1)N/N=C/c1ccc(F)cc1` [Compound 4], in series [1], the “IVTI (In Vitro Therapeutic Index)” value was 24.
Still for that read-out and setting: the value for `N=C(N/N=C/c1ccccc1Cl)N/N=C/c1ccccc1Cl` [Compound 5] was >100.
On the same count and under the same terms, the value for `N=C(N/N=C/c1cccc(Cl)c1)N/N=C/c1cccc(Cl)c1` [Compound 6] was >100; that for `N=C(N/N=C/c1ccccc1Br)N/N=C/c1ccccc1Br` [Compound 7] was >100; that for `N=C(N/N=C/c1cccc(Br)c1)N/N=C/c1cccc(Br)c1` [Compound 8] was >100.
Consider `N=C(N/N=C/c1ccc(Br)cc1)N/N=C/c1ccc(Br)cc1` [Compound 9], for which, in series [1], the “IVTI (In Vitro Therapeutic Index)” value was >100.
Still for that read-out and setting: the value for `Cc1ccc(/C=N/NC(=N)N/N=C/c2ccc(C)cc2)cc1` [Compound 10] was 48.
With `COc1ccc(/C=N/NC(=N)N/N=C/c2ccc(OC)cc2)cc1` [Compound 11], the “IVTI (In Vitro Therapeutic Index)” value in series [1] is listed as >100. Moreover, the “degree of cross resistance” value in the series on P. falciparum strains is ~19 fold.
In the case of `N=C(N/N=C/c1ccc(C(F)(F)F)cc1)N/N=C/c1ccc(C(F)(F)F)cc1` [Compound 12], in series [1], the “IVTI (In Vitro Therapeutic Index)” value worked out at 65.
For `N=C(N/N=C/c1ccccc1OC(F)(F)F)N/N=C/c1ccccc1OC(F)(F)F` [Compound 14], the “IVTI (In Vitro Therapeutic Index)” value in series [1] was >100.
The same measure, in the same setting: the value for `N=C(N/N=C/c1cccc(OC(F)(F)F)c1)N/N=C/c1cccc(OC(F)(F)F)c1` [Compound 15] was 91; that for `N=C(N/N=C/c1ccc(OC(F)(F)F)cc1)N/N=C/c1ccc(OC(F)(F)F)cc1` [Compound 16] was >100; that for `N=C(N/N=C/c1ccc(OC(F)F)cc1)N/N=C/c1ccc(OC(F)F)cc1` [Compound 18] was >100.
On the same count and under the same terms, the value for `N#Cc1ccccc1/C=N/NC(=N)N/N=C/c1ccccc1C#N` [Compound 20] was 30.
On the same count and under the same terms, the value for `N#Cc1cccc(/C=N/NC(=N)N/N=C/c2cccc(C#N)c2)c1` [Compound 21] was >100; that for `N=C(N/N=C/c1ccccc1)N/N=C/c1ccccc1` [Compound 24] was >100; that for `N=C(N/N=C/c1ccc(O)cc1)N/N=C/c1ccc(O)cc1` [Compound 25] was >100.
For `N=C(N/N=C/c1ccc(-c2ccccc2)cc1)N/N=C/c1ccc(-c2ccccc2)cc1` [Compound 26], the “IVTI (In Vitro Therapeutic Index)” value in series [1] is listed as >100.
In the case of `N=C(NN=Cc1ccc([N+](=O)[O-])cc1)NN=Cc1ccc([N+](=O)[O-])cc1` [Compound 27], the “IVTI (In Vitro Therapeutic Index)” value in series [1] is >100.
The same measure, in the same setting: the value for `CN(C)c1ccc(/C=N/NC(=N)N/N=C/c2ccc(N(C)C)cc2)cc1` [Compound 28] was >100; that for `CC#COc1ccc(/C=N/NC(=N)N/N=C/c2ccc(OC#CC)cc2)cc1` [Compound 32] was >100.
As to `N=C(N/N=C/c1ccc(N2CCOCC2)cc1)N/N=C/c1ccc(N2CCOCC2)cc1` [Compound 33], in series [1], the “IVTI (In Vitro Therapeutic Index)” value is >100.
For `N=C(N/N=C/c1cccc(-n2cnnn2)c1)N/N=C/c1cccc(-n2cnnn2)c1` [Compound 34], in series [1], the “IVTI (In Vitro Therapeutic Index)” value is given as 65.
Regarding `Cl.N=C(NN=Cc1ccc2c(c1)OC(F)(F)O2)NN=Cc1ccc2c(c1)OC(F)(F)O2` [Compound 36], the “IVTI (In Vitro Therapeutic Index)” value in series [1] is given as >100.
Still for that read-out and setting: the value for `N=C(N/N=C/c1ccccc1)N/N=C/c1ccccc1F` [Compound 38] was >100; that for `N=C(N/N=C/c1ccc(Cl)cc1)N/N=C/c1ccc(Cl)cc1` [Robenidine] was 93.
